Results from PubChem BioAssay AID1671190 (National Center for Advancing Translational Sciences (NCATS), 2021).
In all, about 580,000 compounds went through this assay and about 6,100 (1.1%) were called active. Inconclusive results, whose numbers are uncertain, are shown with a selection of clear calls. Calls follow the shape of the dose curve; as a rule, active = well fitted inhibition curve with a large enough effect; inconclusive = small, poorly fitted or top-dose-only effect, or another doubt; inactive = no such curve, though single readings can be large or run the other way. A potency beside an inconclusive call is a rough fit, not a confirmed value.

Protein sequences, listed by entry. Tags and fused reporters are not part of them. Lines headed by an entry give the natural chain unless they say otherwise; changes in a name come on top.
UniProt P18054: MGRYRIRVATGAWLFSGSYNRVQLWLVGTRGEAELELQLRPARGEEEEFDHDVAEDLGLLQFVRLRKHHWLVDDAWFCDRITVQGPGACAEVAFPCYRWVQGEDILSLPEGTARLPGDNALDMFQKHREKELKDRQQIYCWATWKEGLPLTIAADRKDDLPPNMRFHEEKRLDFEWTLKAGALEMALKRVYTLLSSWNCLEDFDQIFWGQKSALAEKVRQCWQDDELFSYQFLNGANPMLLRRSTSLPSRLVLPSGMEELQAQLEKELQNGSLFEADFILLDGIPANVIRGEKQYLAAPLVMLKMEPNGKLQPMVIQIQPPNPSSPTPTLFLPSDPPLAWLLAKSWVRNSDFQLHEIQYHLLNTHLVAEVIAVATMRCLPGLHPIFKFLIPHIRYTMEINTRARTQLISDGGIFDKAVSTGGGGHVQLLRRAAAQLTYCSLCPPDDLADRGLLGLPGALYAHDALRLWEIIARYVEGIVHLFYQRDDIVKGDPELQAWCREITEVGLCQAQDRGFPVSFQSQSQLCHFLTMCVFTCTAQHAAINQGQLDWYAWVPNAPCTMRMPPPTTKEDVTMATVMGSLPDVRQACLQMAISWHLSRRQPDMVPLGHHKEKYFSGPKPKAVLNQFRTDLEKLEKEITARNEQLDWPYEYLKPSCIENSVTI

target: Polyunsaturated fatty acid lipoxygenase ALOX12 (Homo sapiens) (UniProt P18054); test: Primary qHTS assay for inhibitors of human arachidonate 12S-lipoxygenase (ALOX12): Round 2; conditions: purified 12hLO, xylenol orange hydroperoxide absorbance; activity change, negative = inhibition: at 108 µM (top of the series) unless noted
How it was run: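 Hydroperoxide product was detected by ferrous iron/xylenol orange as the 573 to 405 nm absorbance ratio. Arachidonic acid at 40 uM (final) was turned over for 30 min at room temperature by 150 nM human 12hLO, pH 7.0 Hepes buffer, after 15 min compound preincubation.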
% is scaled to controls: 0 for no effect and ±100 for the full control effect; potency is read from the fitted curve at half-maximal effect.

Compound	activity change, negative = inhibition	Potency
CCOC(=O)N1CCN(CC(=O)Nc2oc3ccccc3c(=O)c2-c2ccc(Cl)cc2)CC1	inactive: -5.78%	
O=C1CC(C(F)(F)C(F)(F)C(F)(F)C(F)F)=Nc2ccccc2N1	inactive: -3.2%	
CC(=O)C1=C(O)C(=O)N(c2ccc(Br)cc2)C1c1cccc([N+](=O)[O-])c1 (stereo not drawn)		inconclusive: 39.8 µM [inhibitor, partial curve]
CCCN(CCC)Cc1cc(=O)oc2ccccc12		inconclusive: 50.1 µM [inhibitor, partial curve, poor fit]
CC(/C=N\NC(=O)Cn1cncn1)=C/c1ccc(C(C)C)cc1		inconclusive: 141 µM [inhibitor, single point]
CC(C)c1nc(OCC(=O)N2CCCC2)c(C#N)c2c1CCCC2	inactive: 5.29%	
CCCS(=O)(=O)N1CCC2(CC1)CN(C(C)=O)CC2COC (stereo not drawn)	inactive: 18.9%	
CCOC(=O)c1c(NC(=O)COC(=O)c2ccccn2)sc(C(=O)N(C)C)c1C		inconclusive: 31.6 µM [inhibitor, single point]
O=C(O)c1cccc(CN2C(=O)S/C(=C/c3cccc([N+](=O)[O-])c3)C2=O)c1		inconclusive: 44.7 µM [inhibitor, single point]
O=C(c1ccccc1F)N1CCC2(CC1)CC(Cc1ccccc1)=NO2	inactive: -0.0293%	
CCOC(=O)[C@]12CCCC=C1N(Cc1ccc(Cl)cc1Cl)C(=O)[C@H](CC(=O)NCCC(C)C)C2	inactive: -11.9%	
CCCc1ccc(S(=O)(=O)N2CCN(C(C)C(=O)NCc3ccc(OC)cc3)CC2)cc1 (stereo not drawn)	inactive: -1.17%	
O=C(CCNC(=O)c1ccco1)Nc1ccc(Cl)cc1		inconclusive: 141 µM [inhibitor, single point]
Cc1ccc(Nc2nc(N)nc(CSC(=S)N3CCN(c4ccccc4)CC3)n2)cc1		inconclusive: 3.55 µM [inhibitor, full curve, poor fit]
Cc1cc(C)c2c(=O)cc(C(=O)Nc3sc4c(c3C#N)CCCC4)oc2c1		inconclusive: 14.1 µM [inhibitor, full curve, poor fit]
O=C(NCc1ccc(F)cc1)c1ccc2c(c1)N(Cc1c(F)cccc1Cl)C(=O)CS2	inconclusive: -31.1% [inhibitor]	
O=C(c1[nH]c(C(F)(F)F)nc1-c1ccccc1)N1CCN(c2ccncc2)CC1		inconclusive: 100 µM [inhibitor, single point]
Cc1[nH]c2ccccc2c1C(=O)CN1C(=O)NC2(CC(C)CC(C)(C)C2)C1=O (stereo not drawn)	inactive: -13.2%	
O=C(NCc1nnc2n1C(C(=O)NCc1ccc(F)cc1)CC2)c1ccccc1 (stereo not drawn)		inconclusive: 22.4 µM [inhibitor, partial curve]
CC(=O)Nc1ccc(-c2ccnc3c2CC(C)(C(=O)Nc2cccc(OC(F)(F)F)c2)O3)cc1 (stereo not drawn)		inconclusive: 0.501 µM [inhibitor, full curve, poor fit]
Cc1ccc(OCCC(=O)OCC(=O)NC(=O)NCc2ccccc2)cc1	inactive: -0.925%	
COc1ccc(C2CC(c3cccc(Cl)c3)n3nc(N)nc3N2)cc1 (stereo not drawn)		inconclusive: 79.4 µM [inhibitor, single point]
O=C(Nc1cccc(Cl)c1)Nc1cc(S(=O)(=O)N2CCCCC2)ccc1Cl	inactive: -15%	

Compound	activity change, negative = inhibition	Potency
Cc1ccccc1C(=O)Nc1sc(C)c(C)c1C(=O)c1ccccc1		inconclusive: 44.7 µM [inhibitor, partial curve, poor fit]
CC(NC(=O)C(=O)c1c[nH]c2ccccc12)c1ccccc1 (stereo not drawn)	inactive: -11.4%	
N#Cc1ccccc1OCCCN1CCC(Cc2ccccc2)CC1		inconclusive: 0.794 µM [inhibitor, full curve, poor fit]
O=C(Nc1ccccc1N1CCOCC1)c1ccco1	inactive: -24.3%	
CC(=O)Nc1cccc(NC(=O)c2cc(C(C)C)nc3ccccc23)c1	inactive: -16.6%	
CSc1ccc(Cl)c(C(=O)OCC(=O)OC2CC(C)CCC2C(C)C)c1 (stereo not drawn)	inactive: -1.39%	
CN(C)c1ccc(/C=C/c2ccncc2)cc1	inactive: 30.6%	
Cn1c(=O)[nH]c(=O)c2c1nc(NCc1ccccc1)n2CCO	inactive: -30.7%	
COC(=O)Cc1csc(N)n1		inconclusive: 20 µM [inhibitor, partial curve, poor fit]
Cc1sc(N)c(C#N)c1-c1ccc(CC(C)C)cc1		inconclusive: 25.1 µM [inhibitor, partial curve, poor fit]
CC(C)(Oc1nn(CC2CCOCC2)c2ccccc12)C(=O)NCCc1ccccc1	inactive: 9.03% [at 176 µM]	
CCN(CC(=O)NC(C)(C)C)C(=O)NCc1cccc(C(F)(F)F)c1		inconclusive: 112 µM [inhibitor, single point]
Cc1ccc(CNC(=S)Nc2ccc(NS(=O)(=O)c3ccc(C)cc3)cc2)cc1		inconclusive: 8.91 µM [inhibitor, partial curve, poor fit]
COc1ccc(/C=C/C(=O)NC(=S)Nc2ccc(S(=O)(=O)Nc3cc(C)on3)cc2)cc1		inconclusive: 7.94 µM [inhibitor, full curve]
CC(C)CCCCCCNC(=S)Nc1ccc(S(=O)(=O)N2CCOCC2)cc1		active: 50.1 µM
O=C(/C=C/[C@H]1O[C@@H](n2cnc3c(NC(=O)c4ccccc4)ncnc32)[C@H](O)[C@@H]1O)NCC(c1ccccc1)c1ccccc1		inconclusive: 39.8 µM [inhibitor, single point]
CN(C)N1C(=O)CC(c2ccc(Cl)cc2Cl)C2=C1CC(C)(C)CC2=O (stereo not drawn)		inconclusive: 44.7 µM [inhibitor, partial curve, poor fit]
CC1CCN(S(=O)(=O)c2ccc3c(ccn3CC(=O)NCc3ccccc3F)c2)CC1		inconclusive: 100 µM [inhibitor, partial curve, poor fit]
O=C(c1ccccc1)c1ccc(OCC(O)CNC2CCCc3ccccc32)cc1 (stereo not drawn)	inactive: -18.1%	
CCCCn1nc(C(=O)NCC(=O)Nc2ccc(Br)cc2C)c2ccccc2c1=O		inconclusive: 63.1 µM [inhibitor, partial curve, poor fit]
CCOc1cccc(/C=N/N2C(C)CCCC2C)c1O (stereo not drawn)		inconclusive: 89.1 µM [inhibitor, single point]
CCCNC(=O)NCC1(COc2ccc(S(C)(=O)=O)cc2)C[C@@H](O)[C@@H](O)C1 (stereo partly drawn)		inconclusive: 28.2 µM [inhibitor, partial curve, poor fit]
COc1ccccc1Nc1nc(-c2ccc(O)c(C(N)=O)c2)cs1		inconclusive: 39.8 µM [inhibitor, partial curve, poor fit]

4 records drawn at random from the list so far, as already listed:
Compound	activity change, negative = inhibition	Potency
CC1CCN(S(=O)(=O)c2ccc3c(ccn3CC(=O)NCc3ccccc3F)c2)CC1		inconclusive: 100 µM [inhibitor, partial curve, poor fit]
COc1ccccc1Nc1nc(-c2ccc(O)c(C(N)=O)c2)cs1		inconclusive: 39.8 µM [inhibitor, partial curve, poor fit]
O=C(/C=C/[C@H]1O[C@@H](n2cnc3c(NC(=O)c4ccccc4)ncnc32)[C@H](O)[C@@H]1O)NCC(c1ccccc1)c1ccccc1		inconclusive: 39.8 µM [inhibitor, single point]
O=C(c1ccccc1)c1ccc(OCC(O)CNC2CCCc3ccccc32)cc1 (stereo not drawn)	inactive: -18.1%	

(further entries)

Compound	activity change, negative = inhibition	Potency
CCOC(=O)c1cccc(NC(=O)N2CC[C@@H](CC(=O)NCCOC)[C@@H](CC)C2)c1	inactive: -36.2% [at 176 µM]	
O=C(NC(=S)NCCc1ccccc1)c1ccccc1		inconclusive: 8.91 µM [inhibitor, full curve, poor fit]
COc1ccc(S(=O)(=O)c2c(SC)nn(CC(=O)Nc3ccc(C)c(Cl)c3)c2N)cc1		inconclusive: 100 µM [inhibitor, partial curve, poor fit]
CCCCNC(=O)C1(C)CCCCN1C(=O)c1ccc2ccccc2n1 (stereo not drawn)	inactive: -15.5%	
CCn1cc(C(=O)N2CCc3ccccc32)c(=O)c2cc(S(=O)(=O)N3CCCCCC3)ccc21	inactive: -2.13%	
COc1ccc(-c2ccnc3c2c(=O)[nH]c(=O)n3Cc2ccco2)cc1OC		inconclusive: 35.5 µM [inhibitor, partial curve, poor fit]
CCOC(=O)c1[nH]c2ccc(F)cc2c1NC(=O)c1ccccc1F		inconclusive: 79.4 µM [inhibitor, partial curve, poor fit]
O=C(Cc1n[nH]c(=O)c2ccccc12)Nc1ccc(S(=O)(=O)N2CCCC2)cc1	inactive: -28.2%	
COc1cc(/C=C/c2nc3ccccc3s2)cc(OC)c1O		inconclusive: 39.8 µM [inhibitor, partial curve, poor fit]
CCC(C)(C)C1CCC(=NNc2nc3ccccc3[nH]2)CC1 (stereo not drawn)		inconclusive: 70.8 µM [inhibitor, partial curve, poor fit]
O=C(N/N=C1/CCS(=O)(=O)c2ccc(F)cc21)c1cccnc1	inactive: 1.77%	
CC(C)CCNC(=O)c1cnn2c(C(F)(F)F)cc(-c3ccco3)nc12		inconclusive: 31.6 µM [inhibitor, partial curve]
NS(=O)(=O)c1ccc(NC(=S)NCC2CCCO2)cc1 (stereo not drawn)		inconclusive: 56.2 µM [inhibitor, partial curve, poor fit]
COc1ccc(S(=O)(=O)Nc2ccccc2C(N)=O)cc1OC	inactive: 0.853%	
CCC(C)NC(=O)C1c2ccccc2C(=O)N(c2ccc(OC)cc2)C1c1ccc(OC)cc1 (stereo not drawn)	inactive: -6.29%	
S=C(NCCc1ccc(Cl)cc1)Nc1ccc(Nc2ccccc2)cc1		active: 28.2 µM
C[C@H]1[C@H](NC(=O)C(=NOC(C)(C)C(=O)O)c2csc(N)n2)C(=O)N1S(=O)(=O)O		inconclusive: 7.94 µM [inhibitor, full curve, poor fit]
O=C(Cc1ccccc1)Nc1nc2ccc(Cl)cc2c2nc(-c3ccco3)nn12		inconclusive: 100 µM [inhibitor, single point]
CCC1(C)Cc2c(C#N)c(N)sc(=S)c2CO1 (stereo not drawn)		inconclusive: 31.6 µM [inhibitor, partial curve]
O=c1ccn(Cc2ccccc2)cc1		inconclusive: 112 µM [inhibitor, single point]
COc1cccc(CNC(=O)c2cc3cc(OC)ccc3[nH]2)c1		inconclusive: 1.78 µM [inhibitor, full curve, poor fit]
CC(C)Cc1nc2cccnc2n1C1CCN(S(=O)(=O)c2ccc(Cl)s2)CC1		inconclusive: 35.5 µM [inhibitor, single point]
